± gives the standard deviation of the averaged measurements. Only a part is listed here, and it is no random draw. Most entries show no effect beyond the scatter of the controls.
Compound: Nc1ncnc2c1ncn2[C@@H]1O[C@H](COP(=O)(O)OP(=O)(O)OP(=O)(O)O)[C@@H](O)[C@H]1O [adenosine triphosphate]
Assay: NP40-soluble protein abundance relative to vehicle (solubility fold change) (ratio); higher = more soluble protein in presence of ATP
Conditions: concentration: 0.1mM
Procedure, shortened: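 Values are fold changes against the detergent-processed vehicle, based on vsn-normalised intensities. Jurkat crude lysate was treated at eight concentrations from 0.1 to 10 mM (10 min at room temperature, then 3 min at 37 °C), solubilised with 0.8% NP40 and benzonase, ultracentrifuged and analysed by TMT-labelled LC-MS/MS over three independent experiments.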

Chains of the proteins cited; added tags and fusions are not shown. Lines headed by an entry give the natural chain unless they say otherwise; changes in a name come on top.
UniProt O75382: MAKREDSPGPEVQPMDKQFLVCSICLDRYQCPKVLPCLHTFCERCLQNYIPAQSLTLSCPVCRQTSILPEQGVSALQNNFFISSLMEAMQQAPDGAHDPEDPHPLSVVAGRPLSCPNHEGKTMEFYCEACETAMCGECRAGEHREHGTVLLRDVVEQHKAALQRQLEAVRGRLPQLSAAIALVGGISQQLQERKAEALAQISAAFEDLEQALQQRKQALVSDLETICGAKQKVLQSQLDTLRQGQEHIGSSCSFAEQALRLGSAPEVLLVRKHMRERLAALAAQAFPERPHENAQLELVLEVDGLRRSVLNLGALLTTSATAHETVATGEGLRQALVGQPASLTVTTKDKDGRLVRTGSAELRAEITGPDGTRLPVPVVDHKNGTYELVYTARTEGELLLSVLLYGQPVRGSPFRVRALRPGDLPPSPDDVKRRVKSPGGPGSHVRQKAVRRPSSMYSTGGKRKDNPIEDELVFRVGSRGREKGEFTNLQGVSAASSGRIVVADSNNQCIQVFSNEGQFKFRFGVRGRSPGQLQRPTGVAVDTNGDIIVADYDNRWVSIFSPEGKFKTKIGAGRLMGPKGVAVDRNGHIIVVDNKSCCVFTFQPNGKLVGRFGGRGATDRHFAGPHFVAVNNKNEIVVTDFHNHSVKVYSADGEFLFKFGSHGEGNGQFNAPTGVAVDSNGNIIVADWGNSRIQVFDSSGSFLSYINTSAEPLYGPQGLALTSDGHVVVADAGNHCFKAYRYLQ
UniProt O60869: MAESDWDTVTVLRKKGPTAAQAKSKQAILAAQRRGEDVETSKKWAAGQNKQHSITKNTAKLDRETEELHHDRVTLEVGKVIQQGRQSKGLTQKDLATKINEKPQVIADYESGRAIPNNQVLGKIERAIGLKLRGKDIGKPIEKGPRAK
UniProt O75146: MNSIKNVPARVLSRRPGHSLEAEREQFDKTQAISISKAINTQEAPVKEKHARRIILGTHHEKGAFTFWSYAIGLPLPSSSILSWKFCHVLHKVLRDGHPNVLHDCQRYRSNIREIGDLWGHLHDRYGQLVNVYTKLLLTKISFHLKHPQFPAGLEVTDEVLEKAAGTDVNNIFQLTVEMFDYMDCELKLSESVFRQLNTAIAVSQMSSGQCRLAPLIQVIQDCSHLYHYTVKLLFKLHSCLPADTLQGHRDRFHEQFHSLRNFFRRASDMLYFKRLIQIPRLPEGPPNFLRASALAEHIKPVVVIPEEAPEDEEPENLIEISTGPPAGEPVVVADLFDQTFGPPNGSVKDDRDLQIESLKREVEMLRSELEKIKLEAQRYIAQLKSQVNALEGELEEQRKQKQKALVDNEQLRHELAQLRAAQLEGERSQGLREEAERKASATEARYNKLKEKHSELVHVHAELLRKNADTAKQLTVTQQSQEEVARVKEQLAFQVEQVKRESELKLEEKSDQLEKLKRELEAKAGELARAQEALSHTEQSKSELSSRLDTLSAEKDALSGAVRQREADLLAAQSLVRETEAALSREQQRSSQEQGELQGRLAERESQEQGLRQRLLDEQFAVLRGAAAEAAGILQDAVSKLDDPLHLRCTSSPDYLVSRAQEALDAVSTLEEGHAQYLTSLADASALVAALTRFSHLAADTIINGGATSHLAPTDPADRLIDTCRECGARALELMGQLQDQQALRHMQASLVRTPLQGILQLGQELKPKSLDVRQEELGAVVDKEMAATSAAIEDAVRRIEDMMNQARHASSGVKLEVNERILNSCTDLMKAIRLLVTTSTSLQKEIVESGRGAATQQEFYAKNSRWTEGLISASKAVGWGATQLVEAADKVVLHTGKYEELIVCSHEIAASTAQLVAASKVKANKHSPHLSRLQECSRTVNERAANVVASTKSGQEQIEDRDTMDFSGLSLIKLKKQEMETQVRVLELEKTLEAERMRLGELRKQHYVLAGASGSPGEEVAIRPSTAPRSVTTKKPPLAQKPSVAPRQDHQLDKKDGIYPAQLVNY
UniProt O94967: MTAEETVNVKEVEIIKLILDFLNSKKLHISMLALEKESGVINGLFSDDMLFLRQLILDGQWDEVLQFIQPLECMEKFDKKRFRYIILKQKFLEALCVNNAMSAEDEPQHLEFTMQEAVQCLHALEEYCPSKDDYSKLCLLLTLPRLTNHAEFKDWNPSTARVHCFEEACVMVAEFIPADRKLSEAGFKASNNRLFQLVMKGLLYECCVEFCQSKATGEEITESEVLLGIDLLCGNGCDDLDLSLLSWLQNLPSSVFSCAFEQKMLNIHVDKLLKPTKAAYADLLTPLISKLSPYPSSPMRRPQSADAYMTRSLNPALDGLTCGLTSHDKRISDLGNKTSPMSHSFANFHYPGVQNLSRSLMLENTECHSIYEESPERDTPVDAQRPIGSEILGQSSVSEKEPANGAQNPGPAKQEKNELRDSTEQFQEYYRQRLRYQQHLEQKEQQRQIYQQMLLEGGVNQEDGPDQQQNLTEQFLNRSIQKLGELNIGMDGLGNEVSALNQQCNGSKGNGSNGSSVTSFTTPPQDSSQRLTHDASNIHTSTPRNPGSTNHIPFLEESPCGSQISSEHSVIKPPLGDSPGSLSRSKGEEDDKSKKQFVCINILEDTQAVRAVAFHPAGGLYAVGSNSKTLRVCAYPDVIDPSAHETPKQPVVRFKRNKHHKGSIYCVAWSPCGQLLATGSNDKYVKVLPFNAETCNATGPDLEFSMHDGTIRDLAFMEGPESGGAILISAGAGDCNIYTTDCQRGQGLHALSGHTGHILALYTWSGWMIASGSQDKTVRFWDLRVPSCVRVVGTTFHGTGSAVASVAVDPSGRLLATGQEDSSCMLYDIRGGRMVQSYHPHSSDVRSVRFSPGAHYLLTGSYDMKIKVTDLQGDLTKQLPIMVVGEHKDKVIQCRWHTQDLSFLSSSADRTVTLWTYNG
UniProt O75323: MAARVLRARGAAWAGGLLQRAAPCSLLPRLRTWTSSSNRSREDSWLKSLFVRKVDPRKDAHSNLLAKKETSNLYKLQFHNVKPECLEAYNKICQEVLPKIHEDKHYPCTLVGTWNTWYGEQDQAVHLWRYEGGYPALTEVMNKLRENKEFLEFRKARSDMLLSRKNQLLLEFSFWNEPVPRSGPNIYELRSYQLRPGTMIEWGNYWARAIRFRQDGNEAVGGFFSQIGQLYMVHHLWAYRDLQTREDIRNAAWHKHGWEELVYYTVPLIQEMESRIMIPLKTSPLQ
UniProt O95155, whole entry: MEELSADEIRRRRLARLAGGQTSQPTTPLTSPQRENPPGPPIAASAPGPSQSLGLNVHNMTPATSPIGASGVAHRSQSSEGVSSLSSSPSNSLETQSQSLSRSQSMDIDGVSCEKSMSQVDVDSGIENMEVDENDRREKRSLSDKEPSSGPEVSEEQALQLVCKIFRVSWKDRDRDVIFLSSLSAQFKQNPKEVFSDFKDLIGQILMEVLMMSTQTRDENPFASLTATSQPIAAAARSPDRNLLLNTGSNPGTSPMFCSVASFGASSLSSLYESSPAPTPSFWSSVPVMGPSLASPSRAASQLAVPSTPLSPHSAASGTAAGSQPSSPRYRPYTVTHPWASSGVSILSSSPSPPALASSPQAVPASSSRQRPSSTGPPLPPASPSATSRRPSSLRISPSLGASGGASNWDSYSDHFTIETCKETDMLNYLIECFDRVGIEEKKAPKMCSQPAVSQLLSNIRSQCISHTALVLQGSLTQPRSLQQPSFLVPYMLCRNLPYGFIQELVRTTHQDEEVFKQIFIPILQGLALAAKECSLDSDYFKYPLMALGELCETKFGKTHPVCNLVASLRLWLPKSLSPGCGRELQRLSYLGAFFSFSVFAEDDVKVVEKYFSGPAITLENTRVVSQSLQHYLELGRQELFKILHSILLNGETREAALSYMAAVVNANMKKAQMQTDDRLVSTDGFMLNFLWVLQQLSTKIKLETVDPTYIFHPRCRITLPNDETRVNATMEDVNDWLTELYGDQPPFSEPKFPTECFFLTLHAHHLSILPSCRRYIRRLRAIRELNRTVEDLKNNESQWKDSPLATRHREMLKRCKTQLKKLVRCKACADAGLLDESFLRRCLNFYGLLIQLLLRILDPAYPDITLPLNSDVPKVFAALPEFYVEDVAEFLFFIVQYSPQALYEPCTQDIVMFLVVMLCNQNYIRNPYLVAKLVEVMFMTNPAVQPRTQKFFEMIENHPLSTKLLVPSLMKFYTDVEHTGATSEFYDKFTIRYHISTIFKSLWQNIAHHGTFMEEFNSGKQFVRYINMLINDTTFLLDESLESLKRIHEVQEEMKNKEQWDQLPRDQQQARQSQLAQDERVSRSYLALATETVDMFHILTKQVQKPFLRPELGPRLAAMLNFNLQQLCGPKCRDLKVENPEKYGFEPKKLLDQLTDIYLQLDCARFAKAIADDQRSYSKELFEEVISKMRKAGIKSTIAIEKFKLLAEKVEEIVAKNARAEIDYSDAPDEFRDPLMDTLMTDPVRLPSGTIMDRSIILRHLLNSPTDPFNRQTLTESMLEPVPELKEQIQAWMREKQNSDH
UniProt O95466, whole entry: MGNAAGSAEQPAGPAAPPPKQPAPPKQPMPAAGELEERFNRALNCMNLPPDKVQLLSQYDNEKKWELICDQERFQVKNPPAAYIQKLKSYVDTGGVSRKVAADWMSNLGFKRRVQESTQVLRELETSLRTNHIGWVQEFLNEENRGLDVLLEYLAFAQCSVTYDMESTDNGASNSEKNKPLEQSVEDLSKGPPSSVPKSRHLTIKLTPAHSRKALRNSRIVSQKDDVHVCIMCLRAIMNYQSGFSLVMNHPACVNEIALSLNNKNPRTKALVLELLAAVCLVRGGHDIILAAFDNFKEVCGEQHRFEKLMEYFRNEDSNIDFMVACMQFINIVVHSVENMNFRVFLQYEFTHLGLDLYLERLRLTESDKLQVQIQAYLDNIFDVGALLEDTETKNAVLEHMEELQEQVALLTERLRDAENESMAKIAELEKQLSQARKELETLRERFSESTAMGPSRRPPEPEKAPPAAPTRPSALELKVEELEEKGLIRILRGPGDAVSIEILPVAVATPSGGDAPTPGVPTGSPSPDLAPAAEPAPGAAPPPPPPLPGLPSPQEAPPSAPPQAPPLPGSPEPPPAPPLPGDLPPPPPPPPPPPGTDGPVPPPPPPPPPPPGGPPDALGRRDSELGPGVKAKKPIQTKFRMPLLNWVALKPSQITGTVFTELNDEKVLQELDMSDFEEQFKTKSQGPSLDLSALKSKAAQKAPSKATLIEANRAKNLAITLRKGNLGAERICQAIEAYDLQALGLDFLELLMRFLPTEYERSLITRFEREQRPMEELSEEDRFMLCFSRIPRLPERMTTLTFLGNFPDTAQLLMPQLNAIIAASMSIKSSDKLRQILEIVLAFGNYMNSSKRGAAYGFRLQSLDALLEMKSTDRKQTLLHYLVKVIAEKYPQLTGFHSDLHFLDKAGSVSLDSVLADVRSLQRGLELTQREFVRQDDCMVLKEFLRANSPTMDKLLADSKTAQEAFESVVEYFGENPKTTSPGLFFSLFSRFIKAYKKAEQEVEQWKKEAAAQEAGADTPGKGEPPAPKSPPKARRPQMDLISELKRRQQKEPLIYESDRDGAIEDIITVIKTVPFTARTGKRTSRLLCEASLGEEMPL
UniProt O60880: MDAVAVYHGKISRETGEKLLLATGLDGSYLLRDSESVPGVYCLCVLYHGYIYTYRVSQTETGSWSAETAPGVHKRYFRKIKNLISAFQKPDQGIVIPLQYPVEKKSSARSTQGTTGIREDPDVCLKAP
UniProt O94874: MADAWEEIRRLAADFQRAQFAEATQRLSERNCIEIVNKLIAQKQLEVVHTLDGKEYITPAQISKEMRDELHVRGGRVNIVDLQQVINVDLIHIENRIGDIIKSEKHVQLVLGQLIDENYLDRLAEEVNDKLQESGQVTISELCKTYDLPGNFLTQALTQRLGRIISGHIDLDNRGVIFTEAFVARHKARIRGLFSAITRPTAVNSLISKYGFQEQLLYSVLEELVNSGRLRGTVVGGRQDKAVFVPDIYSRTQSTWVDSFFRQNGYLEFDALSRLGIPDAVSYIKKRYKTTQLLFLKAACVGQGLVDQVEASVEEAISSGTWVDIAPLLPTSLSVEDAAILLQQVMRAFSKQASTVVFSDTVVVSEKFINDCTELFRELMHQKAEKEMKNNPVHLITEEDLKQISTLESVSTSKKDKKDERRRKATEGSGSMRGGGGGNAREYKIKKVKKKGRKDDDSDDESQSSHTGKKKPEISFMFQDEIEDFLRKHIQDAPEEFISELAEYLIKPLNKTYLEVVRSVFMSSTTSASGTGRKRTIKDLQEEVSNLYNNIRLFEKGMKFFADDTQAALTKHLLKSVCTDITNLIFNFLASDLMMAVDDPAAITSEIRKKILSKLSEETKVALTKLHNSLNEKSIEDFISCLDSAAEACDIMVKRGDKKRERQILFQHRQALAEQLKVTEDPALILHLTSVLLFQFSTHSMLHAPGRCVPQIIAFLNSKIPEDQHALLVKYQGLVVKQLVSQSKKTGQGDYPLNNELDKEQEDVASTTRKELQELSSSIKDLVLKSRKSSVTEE

Q: UniProt O75382 and related entries was tested. Which NP40-soluble protein abundance did it give?
A: 1.06 ± 0.12

Q: Which NP40-soluble protein abundance does the source give for EDF1 (UniProt O60869) here?
A: 0.95 ± 0.041

Q: How did the NP40-soluble protein abundance turn out when HIP1R (UniProt O75146) was run?
A: 1.02 ± 0.018

Q: Which NP40-soluble protein abundance does the source give for UniProt O75306 and related entries here?
A: 1.05 ± 0.076

Q: SURF6 (UniProt O75683) was tested. Which NP40-soluble protein abundance did it give?
A: 0.953 ± 0.081

Q: CD2BP2 (UniProt O95400) was tested. Which NP40-soluble protein abundance did it give?
A: 0.931 ± 0.073

Q: With UniProt O94967 and related entries as the target, how does the NP40-soluble protein abundance read?
A: 0.976 ± 0.076

Q: Which NP40-soluble protein abundance does the source give for UniProt O75330 and related entries here?
A: 0.959 ± 0.015

Q: For SEC24A (UniProt O95486), which NP40-soluble protein abundance is on record?
A: 1.06 ± 0.078

Q: UniProt O75323 was tested. Which NP40-soluble protein abundance did it give?
A: 1.03 ± 0.057

Q: For PRKD3 (UniProt O94806), which NP40-soluble protein abundance is on record?
A: 1 ± 0.045

Q: Which NP40-soluble protein abundance does the source give for UniProt O75947 here?
A: 0.901 ± 0.084

Same assay, conditions: concentration: 0.5mM

Q: For UniProt O75379 and related entries, which NP40-soluble protein abundance is on record?
A: 1.01 ± 0.16

Q: How did the NP40-soluble protein abundance turn out when UniProt O95155 and related entries was run?
A: 1.04 ± 0.038

Q: For UniProt O75554 and related entries, which NP40-soluble protein abundance is on record?
A: 1.16 ± 0.089

Q: Which NP40-soluble protein abundance does the source give for SNUPN (UniProt O95149) here?
A: 1.03 ± 0.063

Q: Which NP40-soluble protein abundance does the source give for UniProt O76095 and related entries here?
A: 0.936 ± 0.03

Q: For UniProt O95568 and related entries, which NP40-soluble protein abundance is on record?
A: 1.11 ± 0.079

Q: How did the NP40-soluble protein abundance turn out when UniProt O95466-2 was run?
A: 0.983 ± 0.063

Q: How did the NP40-soluble protein abundance turn out when UniProt O60880 and related entries was run?
A: 0.956 ± 0.05

Q: How did the NP40-soluble protein abundance turn out when UniProt O95453 and related entries was run?
A: 1.03 ± 0.041

Q: With UniProt O75845 as the target, how does the NP40-soluble protein abundance read?
A: 1.01 ± 0.044

Q: With UniProt O75935 and related entries as the target, how does the NP40-soluble protein abundance read?
A: 0.872 ± 0.14

Q: With UniProt O95273 and related entries as the target, how does the NP40-soluble protein abundance read?
A: 0.91 ± 0.078

Q: UniProt O94874 was tested. Which NP40-soluble protein abundance did it give?
A: 0.997 ± 0.014

Q: BRD4 (UniProt O60885) was tested. Which NP40-soluble protein abundance did it give?
A: 1.04 ± 0.047

Q: With UniProt O60749 and related entries as the target, how does the NP40-soluble protein abundance read?
A: 1.02 ± 0.06

From the supplement of paper PMC6411743
